In paper doi:10.1101/2023.12.15.571284 one finds binding data, which are given here for two substances.

Protein sequences, listed by entry. Tags and fused reporters are not part of them.
UniProt O15371: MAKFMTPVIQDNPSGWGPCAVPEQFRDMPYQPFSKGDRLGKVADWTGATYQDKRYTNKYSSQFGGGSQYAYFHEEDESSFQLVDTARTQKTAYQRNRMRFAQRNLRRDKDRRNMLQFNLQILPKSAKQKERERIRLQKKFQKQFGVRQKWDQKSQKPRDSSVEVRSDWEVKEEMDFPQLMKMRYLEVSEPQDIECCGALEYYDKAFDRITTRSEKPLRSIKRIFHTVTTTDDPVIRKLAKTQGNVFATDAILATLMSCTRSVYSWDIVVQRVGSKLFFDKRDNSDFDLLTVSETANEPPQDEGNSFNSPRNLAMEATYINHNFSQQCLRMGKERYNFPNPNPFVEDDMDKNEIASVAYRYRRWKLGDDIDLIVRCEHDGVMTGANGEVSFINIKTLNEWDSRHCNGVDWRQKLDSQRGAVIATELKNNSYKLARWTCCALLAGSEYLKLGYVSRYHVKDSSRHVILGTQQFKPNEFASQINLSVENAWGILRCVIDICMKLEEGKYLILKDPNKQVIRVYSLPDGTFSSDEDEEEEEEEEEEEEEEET
UniProt P55884: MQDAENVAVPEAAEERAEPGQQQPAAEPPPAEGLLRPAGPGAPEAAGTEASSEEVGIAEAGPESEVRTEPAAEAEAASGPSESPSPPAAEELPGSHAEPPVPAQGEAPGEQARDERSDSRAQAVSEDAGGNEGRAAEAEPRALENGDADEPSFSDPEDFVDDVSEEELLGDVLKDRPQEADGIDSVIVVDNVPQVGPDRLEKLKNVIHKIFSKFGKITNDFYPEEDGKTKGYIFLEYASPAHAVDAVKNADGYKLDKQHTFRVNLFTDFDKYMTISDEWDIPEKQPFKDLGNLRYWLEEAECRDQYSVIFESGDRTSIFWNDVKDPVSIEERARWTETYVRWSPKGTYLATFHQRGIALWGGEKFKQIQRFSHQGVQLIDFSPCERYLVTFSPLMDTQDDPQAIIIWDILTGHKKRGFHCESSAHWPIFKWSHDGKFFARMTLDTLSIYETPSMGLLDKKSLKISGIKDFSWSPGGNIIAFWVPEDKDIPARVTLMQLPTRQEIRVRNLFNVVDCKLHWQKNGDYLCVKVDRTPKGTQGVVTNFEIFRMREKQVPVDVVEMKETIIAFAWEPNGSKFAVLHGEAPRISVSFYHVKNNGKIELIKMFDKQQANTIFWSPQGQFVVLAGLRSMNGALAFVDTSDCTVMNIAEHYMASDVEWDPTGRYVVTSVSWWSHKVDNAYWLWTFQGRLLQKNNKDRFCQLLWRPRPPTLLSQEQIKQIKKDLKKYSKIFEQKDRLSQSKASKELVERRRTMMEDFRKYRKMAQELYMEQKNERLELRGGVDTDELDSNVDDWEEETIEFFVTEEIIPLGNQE
UniProt Q04637: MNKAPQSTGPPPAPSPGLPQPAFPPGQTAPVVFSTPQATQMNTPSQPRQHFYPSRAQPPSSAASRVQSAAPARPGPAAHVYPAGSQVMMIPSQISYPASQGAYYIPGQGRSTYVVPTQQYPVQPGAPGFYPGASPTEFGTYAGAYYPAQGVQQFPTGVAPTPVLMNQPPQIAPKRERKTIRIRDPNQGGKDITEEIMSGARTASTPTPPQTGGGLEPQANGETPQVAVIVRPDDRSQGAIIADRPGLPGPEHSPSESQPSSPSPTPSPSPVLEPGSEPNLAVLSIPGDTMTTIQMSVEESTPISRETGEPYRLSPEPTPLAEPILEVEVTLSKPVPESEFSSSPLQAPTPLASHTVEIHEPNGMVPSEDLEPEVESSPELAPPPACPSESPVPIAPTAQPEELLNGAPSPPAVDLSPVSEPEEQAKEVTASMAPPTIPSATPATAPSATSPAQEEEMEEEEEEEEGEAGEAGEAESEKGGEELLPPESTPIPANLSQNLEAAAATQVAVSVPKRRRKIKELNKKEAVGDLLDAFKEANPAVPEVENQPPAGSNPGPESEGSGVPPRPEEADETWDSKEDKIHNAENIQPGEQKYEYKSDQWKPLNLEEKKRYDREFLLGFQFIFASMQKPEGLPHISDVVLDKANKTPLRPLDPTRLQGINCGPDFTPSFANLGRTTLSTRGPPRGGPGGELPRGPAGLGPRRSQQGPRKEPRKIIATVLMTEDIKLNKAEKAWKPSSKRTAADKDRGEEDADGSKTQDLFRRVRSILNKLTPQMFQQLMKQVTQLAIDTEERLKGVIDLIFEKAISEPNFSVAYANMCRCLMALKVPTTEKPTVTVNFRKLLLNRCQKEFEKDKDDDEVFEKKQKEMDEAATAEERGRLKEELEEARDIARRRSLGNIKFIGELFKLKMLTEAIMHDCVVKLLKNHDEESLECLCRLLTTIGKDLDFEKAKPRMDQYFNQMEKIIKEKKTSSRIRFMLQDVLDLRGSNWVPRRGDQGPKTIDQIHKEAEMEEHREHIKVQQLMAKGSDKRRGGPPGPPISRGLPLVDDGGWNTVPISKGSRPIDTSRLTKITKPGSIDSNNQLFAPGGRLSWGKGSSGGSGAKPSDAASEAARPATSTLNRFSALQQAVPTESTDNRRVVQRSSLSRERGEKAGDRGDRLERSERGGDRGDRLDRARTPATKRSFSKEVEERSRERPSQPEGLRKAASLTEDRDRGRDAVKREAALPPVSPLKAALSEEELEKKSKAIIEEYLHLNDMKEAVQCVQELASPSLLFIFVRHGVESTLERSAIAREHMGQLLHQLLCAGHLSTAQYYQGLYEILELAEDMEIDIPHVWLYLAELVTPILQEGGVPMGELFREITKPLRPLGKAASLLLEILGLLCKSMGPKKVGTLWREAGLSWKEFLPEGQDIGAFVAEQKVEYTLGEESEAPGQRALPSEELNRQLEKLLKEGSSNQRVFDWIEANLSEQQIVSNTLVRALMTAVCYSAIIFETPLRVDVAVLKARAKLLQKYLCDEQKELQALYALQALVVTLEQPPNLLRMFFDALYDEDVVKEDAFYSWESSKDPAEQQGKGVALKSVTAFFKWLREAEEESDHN

These are yes or no findings as the source states them, for the method shown. Binding seen in cells or lysates may run through a third protein. Some binding calls cover weakened binding; strength is not graded here.

This assay deals with Flag-tagged eIF3d (UniProt O15371). Briefly: co-IP.

As to eIF3b (from UniProt P55884 1-814), the binding result is reported as “binds”. Take eIF4G1 (from UniProt Q04637 1-1599): the binding result is listed as “binds”.
